Results reported in the supplement of paper PMC12067093, “Discovery and optimisation of a covalent ligand for TRIM25 and its application to targeted protein ubiquitination” (Chemical Science, 2025).
This is one part of the list.

Amino acid sequences for entries named in this document (tags omitted). A change or cut given only in a name is not applied to a line headed by its entry.
UniProt Q16513: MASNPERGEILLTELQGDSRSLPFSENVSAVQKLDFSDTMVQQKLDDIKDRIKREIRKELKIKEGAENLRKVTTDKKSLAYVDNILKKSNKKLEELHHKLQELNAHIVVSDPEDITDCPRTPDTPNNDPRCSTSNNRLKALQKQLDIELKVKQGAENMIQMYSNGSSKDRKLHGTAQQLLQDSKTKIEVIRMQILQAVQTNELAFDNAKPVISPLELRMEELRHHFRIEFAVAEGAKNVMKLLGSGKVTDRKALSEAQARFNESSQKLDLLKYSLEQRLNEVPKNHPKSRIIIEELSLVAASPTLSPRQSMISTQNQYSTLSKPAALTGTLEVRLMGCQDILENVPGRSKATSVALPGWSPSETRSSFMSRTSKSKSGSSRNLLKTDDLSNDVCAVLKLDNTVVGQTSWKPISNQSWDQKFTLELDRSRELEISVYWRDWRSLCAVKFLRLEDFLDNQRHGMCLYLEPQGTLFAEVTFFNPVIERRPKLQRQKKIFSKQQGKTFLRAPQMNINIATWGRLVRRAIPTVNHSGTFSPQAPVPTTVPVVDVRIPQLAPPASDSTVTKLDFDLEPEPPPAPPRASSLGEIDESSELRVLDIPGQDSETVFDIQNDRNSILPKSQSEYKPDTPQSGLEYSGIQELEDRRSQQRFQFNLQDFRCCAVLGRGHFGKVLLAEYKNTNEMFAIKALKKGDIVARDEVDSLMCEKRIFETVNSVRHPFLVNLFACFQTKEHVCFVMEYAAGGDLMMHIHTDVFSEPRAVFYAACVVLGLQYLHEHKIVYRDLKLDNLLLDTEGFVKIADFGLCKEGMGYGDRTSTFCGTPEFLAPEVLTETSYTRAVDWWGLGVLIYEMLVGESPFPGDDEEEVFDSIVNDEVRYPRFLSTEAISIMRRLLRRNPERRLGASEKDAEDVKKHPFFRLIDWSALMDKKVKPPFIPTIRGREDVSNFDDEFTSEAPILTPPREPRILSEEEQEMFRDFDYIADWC
UniProt Q99570, whole entry, looked up: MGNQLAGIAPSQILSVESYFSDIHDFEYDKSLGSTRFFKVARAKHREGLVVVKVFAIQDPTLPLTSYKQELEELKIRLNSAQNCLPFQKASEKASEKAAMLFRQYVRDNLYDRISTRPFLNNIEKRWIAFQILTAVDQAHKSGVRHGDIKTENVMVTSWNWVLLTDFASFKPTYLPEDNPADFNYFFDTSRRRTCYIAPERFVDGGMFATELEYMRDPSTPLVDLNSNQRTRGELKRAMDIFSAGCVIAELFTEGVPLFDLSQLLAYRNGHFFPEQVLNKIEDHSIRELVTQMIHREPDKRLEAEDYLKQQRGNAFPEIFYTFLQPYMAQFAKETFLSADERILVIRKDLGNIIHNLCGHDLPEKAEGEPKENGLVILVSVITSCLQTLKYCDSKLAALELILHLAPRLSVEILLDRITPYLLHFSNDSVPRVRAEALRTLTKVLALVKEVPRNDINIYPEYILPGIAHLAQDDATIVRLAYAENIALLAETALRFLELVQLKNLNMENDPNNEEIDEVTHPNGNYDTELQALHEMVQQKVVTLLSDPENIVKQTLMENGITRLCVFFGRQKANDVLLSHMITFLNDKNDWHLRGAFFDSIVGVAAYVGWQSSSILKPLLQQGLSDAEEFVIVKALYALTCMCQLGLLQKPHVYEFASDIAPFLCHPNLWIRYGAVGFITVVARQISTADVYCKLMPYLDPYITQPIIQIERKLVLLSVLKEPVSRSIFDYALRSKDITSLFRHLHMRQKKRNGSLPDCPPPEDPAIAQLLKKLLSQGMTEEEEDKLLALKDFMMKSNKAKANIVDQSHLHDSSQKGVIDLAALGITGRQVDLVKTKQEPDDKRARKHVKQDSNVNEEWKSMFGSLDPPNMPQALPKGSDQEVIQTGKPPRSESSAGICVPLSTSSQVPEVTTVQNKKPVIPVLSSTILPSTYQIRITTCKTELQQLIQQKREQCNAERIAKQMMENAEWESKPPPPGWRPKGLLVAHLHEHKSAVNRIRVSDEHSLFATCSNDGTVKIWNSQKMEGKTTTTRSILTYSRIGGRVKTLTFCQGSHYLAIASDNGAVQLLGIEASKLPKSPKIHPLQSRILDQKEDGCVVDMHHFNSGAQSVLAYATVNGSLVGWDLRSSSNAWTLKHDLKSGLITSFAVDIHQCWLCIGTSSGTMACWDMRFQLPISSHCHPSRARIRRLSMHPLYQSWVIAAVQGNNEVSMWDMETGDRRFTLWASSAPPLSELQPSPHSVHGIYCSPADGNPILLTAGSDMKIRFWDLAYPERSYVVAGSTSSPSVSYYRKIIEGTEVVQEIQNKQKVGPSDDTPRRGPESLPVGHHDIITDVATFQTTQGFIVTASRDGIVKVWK
UniProt P29590: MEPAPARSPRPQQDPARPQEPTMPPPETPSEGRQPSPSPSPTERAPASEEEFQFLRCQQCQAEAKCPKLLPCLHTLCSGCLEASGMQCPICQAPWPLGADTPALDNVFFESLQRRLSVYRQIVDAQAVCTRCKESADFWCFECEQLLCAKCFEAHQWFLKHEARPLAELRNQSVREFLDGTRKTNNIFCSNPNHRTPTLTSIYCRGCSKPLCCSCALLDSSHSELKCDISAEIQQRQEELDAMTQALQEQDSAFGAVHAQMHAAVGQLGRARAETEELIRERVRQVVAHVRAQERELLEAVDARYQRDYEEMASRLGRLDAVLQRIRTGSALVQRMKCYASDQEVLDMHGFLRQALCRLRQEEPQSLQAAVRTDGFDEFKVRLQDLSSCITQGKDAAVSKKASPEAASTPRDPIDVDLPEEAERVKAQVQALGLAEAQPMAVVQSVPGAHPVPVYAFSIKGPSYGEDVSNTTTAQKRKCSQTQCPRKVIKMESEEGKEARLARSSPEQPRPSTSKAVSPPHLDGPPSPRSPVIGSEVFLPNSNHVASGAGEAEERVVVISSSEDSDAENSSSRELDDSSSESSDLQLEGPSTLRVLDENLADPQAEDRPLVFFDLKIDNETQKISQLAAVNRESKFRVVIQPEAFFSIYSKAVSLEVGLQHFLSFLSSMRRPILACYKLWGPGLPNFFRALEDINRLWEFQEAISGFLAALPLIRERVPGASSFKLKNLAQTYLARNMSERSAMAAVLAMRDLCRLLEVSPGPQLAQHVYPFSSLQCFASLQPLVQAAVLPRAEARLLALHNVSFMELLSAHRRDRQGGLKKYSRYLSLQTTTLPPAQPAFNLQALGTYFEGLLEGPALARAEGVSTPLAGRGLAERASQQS
UniProt P54277: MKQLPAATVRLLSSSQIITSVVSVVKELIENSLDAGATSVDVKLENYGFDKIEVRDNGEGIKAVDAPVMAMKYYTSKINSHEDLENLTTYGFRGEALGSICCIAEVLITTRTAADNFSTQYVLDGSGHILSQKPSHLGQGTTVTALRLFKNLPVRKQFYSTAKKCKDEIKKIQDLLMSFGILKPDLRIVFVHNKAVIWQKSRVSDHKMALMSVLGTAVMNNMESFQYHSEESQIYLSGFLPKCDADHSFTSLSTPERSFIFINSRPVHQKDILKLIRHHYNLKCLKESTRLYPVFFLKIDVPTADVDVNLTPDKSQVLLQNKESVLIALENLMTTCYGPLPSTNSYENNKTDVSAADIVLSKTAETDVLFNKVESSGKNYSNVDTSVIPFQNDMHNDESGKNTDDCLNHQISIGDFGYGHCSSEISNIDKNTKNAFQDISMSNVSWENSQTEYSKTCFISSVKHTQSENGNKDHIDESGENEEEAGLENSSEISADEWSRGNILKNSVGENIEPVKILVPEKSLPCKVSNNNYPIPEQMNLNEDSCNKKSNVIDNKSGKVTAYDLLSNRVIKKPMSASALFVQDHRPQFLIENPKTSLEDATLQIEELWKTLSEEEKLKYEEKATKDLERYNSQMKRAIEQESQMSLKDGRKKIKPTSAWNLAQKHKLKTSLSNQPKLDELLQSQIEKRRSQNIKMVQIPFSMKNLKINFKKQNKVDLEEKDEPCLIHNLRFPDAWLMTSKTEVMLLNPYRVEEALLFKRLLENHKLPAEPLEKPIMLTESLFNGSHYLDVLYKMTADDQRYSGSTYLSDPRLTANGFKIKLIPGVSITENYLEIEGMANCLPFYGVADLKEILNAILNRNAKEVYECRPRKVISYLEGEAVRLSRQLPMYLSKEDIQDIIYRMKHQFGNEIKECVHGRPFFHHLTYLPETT
UniProt Q9Y263: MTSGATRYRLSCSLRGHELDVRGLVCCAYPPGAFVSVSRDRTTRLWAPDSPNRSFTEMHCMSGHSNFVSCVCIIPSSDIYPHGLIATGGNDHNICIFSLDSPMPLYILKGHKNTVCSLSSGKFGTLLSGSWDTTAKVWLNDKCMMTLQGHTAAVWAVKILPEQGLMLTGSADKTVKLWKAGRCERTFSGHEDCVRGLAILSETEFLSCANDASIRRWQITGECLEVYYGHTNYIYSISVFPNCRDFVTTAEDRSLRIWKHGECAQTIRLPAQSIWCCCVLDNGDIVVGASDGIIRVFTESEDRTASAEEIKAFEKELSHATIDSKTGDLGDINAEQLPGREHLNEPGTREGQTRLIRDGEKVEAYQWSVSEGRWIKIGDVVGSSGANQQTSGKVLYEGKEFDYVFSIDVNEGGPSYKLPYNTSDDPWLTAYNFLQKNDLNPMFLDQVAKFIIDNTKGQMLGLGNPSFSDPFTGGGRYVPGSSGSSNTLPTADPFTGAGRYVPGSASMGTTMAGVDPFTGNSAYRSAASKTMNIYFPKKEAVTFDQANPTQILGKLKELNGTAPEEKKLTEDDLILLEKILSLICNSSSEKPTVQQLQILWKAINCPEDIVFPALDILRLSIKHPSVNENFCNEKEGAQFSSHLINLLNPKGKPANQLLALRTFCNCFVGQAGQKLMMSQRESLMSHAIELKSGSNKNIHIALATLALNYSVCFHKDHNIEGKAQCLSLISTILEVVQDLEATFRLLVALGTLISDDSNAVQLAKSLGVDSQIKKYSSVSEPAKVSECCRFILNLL
UniProt Q5JRX3: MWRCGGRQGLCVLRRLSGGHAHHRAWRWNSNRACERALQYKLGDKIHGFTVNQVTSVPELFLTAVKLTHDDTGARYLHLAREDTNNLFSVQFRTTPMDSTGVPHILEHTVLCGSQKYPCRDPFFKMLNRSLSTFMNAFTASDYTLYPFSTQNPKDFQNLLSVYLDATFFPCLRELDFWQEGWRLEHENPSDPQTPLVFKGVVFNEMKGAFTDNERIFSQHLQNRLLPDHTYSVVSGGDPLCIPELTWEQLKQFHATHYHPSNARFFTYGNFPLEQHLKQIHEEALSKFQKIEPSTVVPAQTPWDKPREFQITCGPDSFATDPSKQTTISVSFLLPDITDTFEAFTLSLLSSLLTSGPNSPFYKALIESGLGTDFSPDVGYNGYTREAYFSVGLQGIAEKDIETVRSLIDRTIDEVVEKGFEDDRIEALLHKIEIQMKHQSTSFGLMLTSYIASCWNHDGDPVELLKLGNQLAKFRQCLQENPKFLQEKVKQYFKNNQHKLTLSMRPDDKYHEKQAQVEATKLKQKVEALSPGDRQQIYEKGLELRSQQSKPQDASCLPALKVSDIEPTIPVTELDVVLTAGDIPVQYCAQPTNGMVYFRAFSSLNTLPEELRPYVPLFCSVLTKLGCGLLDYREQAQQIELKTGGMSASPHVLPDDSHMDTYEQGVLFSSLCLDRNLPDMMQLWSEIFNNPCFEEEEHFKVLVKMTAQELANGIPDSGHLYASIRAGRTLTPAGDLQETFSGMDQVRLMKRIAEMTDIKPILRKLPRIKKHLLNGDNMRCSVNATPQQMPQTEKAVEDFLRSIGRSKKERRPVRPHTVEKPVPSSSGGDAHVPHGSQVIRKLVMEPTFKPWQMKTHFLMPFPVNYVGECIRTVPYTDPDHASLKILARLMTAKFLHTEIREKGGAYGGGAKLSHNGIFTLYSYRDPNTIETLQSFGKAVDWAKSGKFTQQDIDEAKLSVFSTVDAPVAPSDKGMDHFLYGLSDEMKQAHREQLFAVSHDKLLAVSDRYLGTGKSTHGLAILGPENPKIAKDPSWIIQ
UniProt Q10713: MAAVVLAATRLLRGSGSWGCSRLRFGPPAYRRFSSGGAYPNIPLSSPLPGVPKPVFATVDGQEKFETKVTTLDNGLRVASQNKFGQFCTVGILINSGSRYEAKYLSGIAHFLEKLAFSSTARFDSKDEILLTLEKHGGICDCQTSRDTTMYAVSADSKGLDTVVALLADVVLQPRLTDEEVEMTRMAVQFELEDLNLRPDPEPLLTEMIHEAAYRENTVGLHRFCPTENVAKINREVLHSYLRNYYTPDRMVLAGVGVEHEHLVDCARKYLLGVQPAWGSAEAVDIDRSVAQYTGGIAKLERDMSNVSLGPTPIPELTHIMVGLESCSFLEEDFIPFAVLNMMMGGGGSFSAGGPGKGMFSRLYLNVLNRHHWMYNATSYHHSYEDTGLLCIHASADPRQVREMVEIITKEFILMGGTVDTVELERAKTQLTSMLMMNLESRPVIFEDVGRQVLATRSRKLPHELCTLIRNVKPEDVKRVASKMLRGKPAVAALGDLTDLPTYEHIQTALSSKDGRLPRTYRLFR

Compound: CC1Cc2ccccc2N1C(=O)C1CCCN(C1)C(=O)CCl (mixture of isomers) [TRIM25 ligand 11 (diastereomer mixture)]
Experiment: probe-labelled cysteine peptide fold change vs DMSO (competition) (log2 fold change); higher = less target engagement (more negative = stronger competition)
Details: THP-1, incubation time: 4 h
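Note: competitive chemoproteomic profiling in live THP-1 cells with an iodoacetamide desthiobiotin (IA-DTB) probe, comparing probe-labelled peptide intensities in compound-treated cells against DMSO-treated controls.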

Row | Target | probe-labelled cysteine peptide fold change (10 µM) | probe-labelled cysteine peptide fold change (50 µM)
1 | PLEKHF2_Q9H8W4_219_ICDFCYDLLSAGDMATCQPAR (UniProt Q9H8W4) | -0.379 | -0.1
2 | PLEKHA2_Q9HB19_81_TPFCFVINALSQR (UniProt Q9HB19) | 0.0911 | 0.0643
3 | PLEK_P08567_102_CIEGGQK (UniProt P08567) | 0.0434 | 0.0851
4 | PKN2_Q16513_394_TDDLSNDVCAVLK (UniProt Q16513) | -0.138 | -0.0681
5 | PMVK_Q15126_38_LGADVCAVLR (UniProt Q15126) | -0.0865 | -0.0199
6 | PLXNB2_O15031_1504+1506_GQPCSCWPRPDSVVLEWRPGSTAQILSDLDLTSQR (UniProt O15031) | 0.212 | 0.152
7 | PIK3R4_Q99570_358_DLGNIIHNLCGHDLPEK (UniProt Q99570) | 0.0664 | 0.0689
8 | PML_P29590_227_CDISAEIQQR (UniProt P29590) | -0.0239 | -0.000233
9 | PLXNB2_O15031_637_WTCQWDLR (UniProt O15031) | -0.109 | 0.0373
10 | PNKP_Q96T60_447_CFLFTATLEQAR (UniProt Q96T60) | -0.17 | -0.00408
11 | PM20D2_Q8IYS1_303_AAALASGCTVEIK (UniProt Q8IYS1) | 0.154 | -0.0302
12 | PLCB2_Q00722_1001_QGEEQYECVLK (UniProt Q00722) | -0.137 | -0.0186
13 | PLEKHF2_Q9H8W4_158_TPSNEHAAVWVPDSEATVCMR (UniProt Q9H8W4) | -0.12 | -0.105
14 | PLD4_Q96BZ4_502_YAVGLDGQAPGQDCVWQG (UniProt Q96BZ4) | -0.0872 | 0.27
15 | PMS1_P54277_457_TCFISSVK (UniProt P54277) | -0.0121 | -0.0876
16 | PLAA_Q9Y263_26_GLVCCAYPPGAFVSVSR (UniProt Q9Y263) | 0.00974 | -0.0656
17 | PLOD3_O60568_494_DVFSGSDTDPDMAFCK (UniProt O60568) | -0.109 | -0.117
18 | PLCG2_P16885_551_LLQEYCMETGGK (UniProt P16885) | -0.0436 | -0.0603
19 | PLCG1_P19174_1088_GLEPCAISIEVLGAR (UniProt P19174) | 0.0595 | -0.198
20 | PLEKHA3_Q9HB20_216_SVSHPGSCSSER (UniProt Q9HB20) | 0.096 | -0.186
21 | PLCB2_Q00722_216_SFLMSLCPRPEIDEIFTSYHAK (UniProt Q00722) | 0.11 | -0.0654
22 | PIK3CD_O00329_416_KADCPIAWANLMLFDYK (UniProt O00329) | -0.0873 | -0.115

From no. 10 to 11, as listed above:
Row | Target | probe-labelled cysteine peptide fold change (10 µM) | probe-labelled cysteine peptide fold change (50 µM)
10 | PNKP_Q96T60_447_CFLFTATLEQAR (UniProt Q96T60) | -0.17 | -0.00408
11 | PM20D2_Q8IYS1_303_AAALASGCTVEIK (UniProt Q8IYS1) | 0.154 | -0.0302

Next records:

Row | Target | probe-labelled cysteine peptide fold change (10 µM) | probe-labelled cysteine peptide fold change (50 µM)
23 | PLEKHG2_Q9H7P9_405_RLWIHCLQR (UniProt Q9H7P9) | -0.0889 | -0.0245
24 | PITHD1_Q9GZP4_42_LQCLNESR (UniProt Q9GZP4) | 0.109 | 0.13
25 | PLCB3_Q01970_193_RVETALESCGLK (UniProt Q01970) | -0.11 | 0.15
26 | PITRM1_Q5JRX3_869_THFLMPFPVNYVGECIR (UniProt Q5JRX3) | -0.05 | 0.0338
27 | PLXDC2_Q6UX71_529_EGFIVSEQC (UniProt Q6UX71) | 0.143 | -0.324
28 | PLEK_P08567_155+160_IFNHCFTGNCVIDWLVSNQSVR (UniProt P08567) | -0.164 | -0.276
29 | PLEKHO2_Q8TD55_59_CVETVELGSYEK (UniProt Q8TD55) | 0.0583 | -0.159
30 | PLCG2_P16885_937_NQSIAIELSDLVVYCKPTSK (UniProt P16885) | 0.0579 | -0.0729
31 | PIK3R4_Q99570_1011_VSDEHSLFATCSNDGTVK (UniProt Q99570) | 0.204 | 0.275
32 | PLXNB2_O15031_937_VTLNGVPCK (UniProt O15031) | 0.0926 | 0.112
33 | PLCG2_P16885_1090_SIACPFVEVEICGAEYDNNK (UniProt P16885) | -0.123 | 0.0206
34 | PISD_Q9UG56_300_ELFCHNER (UniProt Q9UG56) | 0.0592 | 0.123
35 | PLXNB2_O15031_364_SFPCGSEHLPYPLGSR (UniProt O15031) | -0.00656 | 0.0757
36 | PKN2_Q16513_704_DEVDSLMCEK (UniProt Q16513) | -0.0507 | -0.179
37 | PITRM1_Q5JRX3_477_QCLQENPK (UniProt Q5JRX3) | -0.165 | 0.0295
38 | PLG_P00747_398_CQSWSSMTPHR (UniProt P00747) | 0.146 | -0.258
39 | PIK3C3_Q8NEB9_476_EVPDGENLEQDLCTFLISR (UniProt Q8NEB9) | -0.253 | 0.0238
40 | PITPNM1_O00562_259_CNTGSEGSEAQPPGKPSTEAR (UniProt O00562) | -0.0479 | -0.104
41 | PLIN2_Q99541_302_SIGYDDTDESHCAEHIESR (UniProt Q99541) | 0.0383 | 0.147
42 | PMPCA_Q10713_466_LPHELCTLIR (UniProt Q10713) | -0.0203 | -0.13
43 | PLEC_Q15149_3667_CVEDPETGLR (UniProt Q15149) | 0.0186 | 0.0799
44 | PLEC_Q15149_4071_FLEGTSCIAGVFVDATK (UniProt Q15149) | -0.0116 | 0.0455

Row | Target | probe-labelled cysteine peptide fold change (10 µM) | probe-labelled cysteine peptide fold change (50 µM)
45 | PLCB2_Q00722_1169_ACECPPELCEQDPLIAK (UniProt Q00722) | 0.0923 | -0.538
46 | PLPBP_O94903_261_CAADVK (UniProt O94903) | -0.0613 | -0.126
47 | PLCG1_P19174_417_EHAFVASEYPVILSIEDHCSIAQQR (UniProt P19174) | -0.304 | 0.251
48 | PLPPR3_Q6T4P5_54_VGFQCYDR (UniProt Q6T4P5) | 0.0205 | 0.0103
49 | PMS1_P54277_243_CDADHSFTSLSTPER (UniProt P54277) | 0.119 | 0.00235
50 | PKM_P14618_49_NTGIICTIGPASR (UniProt P14618) | -0.0858 | -0.0306
51 | PLAA_Q9Y263_631_HPSVNENFCNEK (UniProt Q9Y263) | 0.22 | -0.0586
52 | PLBD2_Q8NHP8_495_ACNPQPNGENAISAR (UniProt Q8NHP8) | -0.125 | -0.0422
53 | PIK3CG_P48736_817_CADPTALSNETIGIIFK (UniProt P48736) | 0.0459 | 0.0517
54 | PML_P29590_57_CQQCQAEAK (UniProt P29590) | -0.104 | -0.0392
55 | PIP4K2C_Q8TBX8_176_CHGNTLLPQFLGMYR (UniProt Q8TBX8) | -0.125 | 0.22
56 | PLCL2_Q9UPR0_1095_QIHFAAVSCGLNKPGTENADVQKPR (UniProt Q9UPR0) | -0.0662 | -0.127
57 | PLEKHG4_Q58EX7_917_HGNDLLAMDAIQGCDVNLK (UniProt Q58EX7) | 0.0117 | -0.137
58 | PKM_P14618_31_SKPHSEAGTAFIQTQQLHAAMADTFLEHMCR (UniProt P14618) | -0.0647 | -0.0332
59 | PLXND1_Q9Y4D7_345_KLTESYIQLGLQCAGGAGR (UniProt Q9Y4D7) | -0.0112 | 0.124
60 | PKM_P14618-2_423_CLAAALIVLTESGR (UniProt P14618) | 0.102 | 0.159
61 | PIK3R2_O00459_396_DGHYGFSEPLTFCSVVDLINHYR (UniProt O00459) | 0.0424 | 0.0979
62 | PMPCB_O75439_277_GEIPALPPCK (UniProt O75439) | 0.27 | 0.115
63 | PLEC_Q15149_950_LPLLAVCDYK (UniProt Q15149) | -0.0639 | -0.000541
64 | PML_P29590_140+143_ESADFWCFECEQLLCAK (UniProt P29590) | 0.0457 | -0.0346
65 | PLEC_Q15149_3110_LCFEGLR (UniProt Q15149) | -0.267 | -0.465
66 | PLCG1_P19174_12_AGAASPCANGCGPGAPSDAEVLHLCR (UniProt P19174) | -0.258 | -0.148

Looked up above:
PMS1_P54277_243_CDADHSFTSLSTPER (UniProt P54277) – probe-labelled cysteine peptide fold change (10 µM): 0.119
PLCL2_Q9UPR0_1095_QIHFAAVSCGLNKPGTENADVQKPR (UniProt Q9UPR0) – probe-labelled cysteine peptide fold change (10 µM): -0.0662

Further entries

Row | Target | probe-labelled cysteine peptide fold change (10 µM) | probe-labelled cysteine peptide fold change (50 µM)
67 | PIK3CD_O00329_90_RLCDVQPFLPVLR (UniProt O00329) | -0.062 | 0.226
68 | PNPLA6_Q8IY17_991_GCSHIGVLK (UniProt Q8IY17) | -0.0375 | -0.0083
69 | PLK1_P53350_405_QEEAEDPACIPIFWVSK (UniProt P53350) | -0.108 | -0.251
70 | PIK3R4_Q99570_899_SESSAGICVPLSTSSQVPEVTTVQNK (UniProt Q99570) | -0.0236 | -0.238
71 | PLCG1_P19174_960_IALELSELVVYCR (UniProt P19174) | 0.103 | 0.1
72 | PIKFYVE_Q9Y2I7_421_WLDCVSHHDQLFR (UniProt Q9Y2I7) | 0.274 | 0.0474
73 | PLEKHA2_Q9HB19_332_SISLTRPGSSSLSSGPNSILCR (UniProt Q9HB19) | -0.0575 | -0.276
74 | PKM_P14618_423_CCSGAIIVLTK (UniProt P14618) | 0.0476 | 0.0123
75 | PNKP_Q96T60_445_AAGVPCR (UniProt Q96T60) | -0.15 | 0.218
76 | PMPCA_Q10713_140+142_HGGICDCQTSR (UniProt Q10713) | -0.0321 | -0.0373
77 | PNKP_Q96T60_409_CVTTCETALK (UniProt Q96T60) | 0.0122 | 0.0257
78 | PLOD3_O60568_698_YDCVISSPR (UniProt O60568) | 0.167 | 0.169
79 | PLRG1_O43660_338_CQAAEPQIITGSHDTTIR (UniProt O43660) | 0.0435 | 0.283
80 | PNPO_Q9NVS9_156_KLPEEEAECYFHSRPK (UniProt Q9NVS9) | -0.0908 | -0.0729
81 | PJA2_O43164_48_HAYVSFKPCMTR (UniProt O43164) | -0.127 | -0.114
82 | PLA2G4A_P47712_726_CSVSLSNVEAR (UniProt P47712) | -0.121 | -0.121
83 | PLIN3_O60664_60_TVCDAAEK (UniProt O60664) | 0.00363 | 0.041
84 | PLCG2_P16885_409_DHAFVTSSFPVILSIEEHCSVEQQR (UniProt P16885) | 0.179 | 0.167
85 | PMM1_Q92871_145_SCTLEER (UniProt Q92871) | 0.143 | 0.196
